Laboratory results published in PubChem BioAssay (EPA / NIEHS).
The inconclusive results got no clear call from the source; some entries with a clear call stand among them for comparison. For some assays here: Where the call is inconclusive, the potency comes from a doubtful curve fit. The source made the active and inactive calls. Rule for the calls: active = hit-call score of the fitted dose curve at least 0.9, where 1 is the maximum; inconclusive = response in the unintended direction; inactive = score below 0.9.

Protein sequences, listed by entry. Tags and fused reporters are not part of them. Lines headed by an entry give the natural chain unless they say otherwise; changes in a name come on top.
UniProt Q9UNQ0: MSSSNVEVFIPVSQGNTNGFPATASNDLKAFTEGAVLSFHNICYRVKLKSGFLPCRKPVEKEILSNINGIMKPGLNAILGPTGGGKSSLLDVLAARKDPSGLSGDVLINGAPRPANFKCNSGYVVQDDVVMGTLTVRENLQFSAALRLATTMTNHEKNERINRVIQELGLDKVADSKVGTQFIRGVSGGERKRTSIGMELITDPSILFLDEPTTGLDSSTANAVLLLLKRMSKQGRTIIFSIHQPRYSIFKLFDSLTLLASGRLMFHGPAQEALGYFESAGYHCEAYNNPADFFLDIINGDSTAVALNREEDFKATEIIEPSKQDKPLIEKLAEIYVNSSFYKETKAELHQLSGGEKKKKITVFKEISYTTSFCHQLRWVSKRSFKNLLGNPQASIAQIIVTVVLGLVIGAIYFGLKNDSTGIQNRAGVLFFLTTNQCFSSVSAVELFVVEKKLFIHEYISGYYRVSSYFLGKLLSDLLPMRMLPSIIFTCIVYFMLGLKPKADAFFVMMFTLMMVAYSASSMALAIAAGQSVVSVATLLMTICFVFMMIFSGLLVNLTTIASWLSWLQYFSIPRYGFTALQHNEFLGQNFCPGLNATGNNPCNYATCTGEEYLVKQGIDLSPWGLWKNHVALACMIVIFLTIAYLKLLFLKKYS
UniProt P33261, whole entry, looked up: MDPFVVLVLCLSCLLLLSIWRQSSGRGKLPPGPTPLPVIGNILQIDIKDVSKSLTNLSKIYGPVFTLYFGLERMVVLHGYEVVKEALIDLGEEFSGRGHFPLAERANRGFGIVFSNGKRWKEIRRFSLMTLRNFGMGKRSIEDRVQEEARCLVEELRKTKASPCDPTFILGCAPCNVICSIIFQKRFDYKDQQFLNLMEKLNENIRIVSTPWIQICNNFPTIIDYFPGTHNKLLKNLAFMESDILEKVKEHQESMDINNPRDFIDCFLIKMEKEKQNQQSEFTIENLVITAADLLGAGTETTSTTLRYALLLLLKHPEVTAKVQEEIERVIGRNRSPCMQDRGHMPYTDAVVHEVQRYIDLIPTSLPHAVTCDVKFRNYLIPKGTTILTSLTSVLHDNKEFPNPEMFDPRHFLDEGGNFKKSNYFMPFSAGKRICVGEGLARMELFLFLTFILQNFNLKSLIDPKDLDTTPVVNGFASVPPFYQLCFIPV
UniProt P20813: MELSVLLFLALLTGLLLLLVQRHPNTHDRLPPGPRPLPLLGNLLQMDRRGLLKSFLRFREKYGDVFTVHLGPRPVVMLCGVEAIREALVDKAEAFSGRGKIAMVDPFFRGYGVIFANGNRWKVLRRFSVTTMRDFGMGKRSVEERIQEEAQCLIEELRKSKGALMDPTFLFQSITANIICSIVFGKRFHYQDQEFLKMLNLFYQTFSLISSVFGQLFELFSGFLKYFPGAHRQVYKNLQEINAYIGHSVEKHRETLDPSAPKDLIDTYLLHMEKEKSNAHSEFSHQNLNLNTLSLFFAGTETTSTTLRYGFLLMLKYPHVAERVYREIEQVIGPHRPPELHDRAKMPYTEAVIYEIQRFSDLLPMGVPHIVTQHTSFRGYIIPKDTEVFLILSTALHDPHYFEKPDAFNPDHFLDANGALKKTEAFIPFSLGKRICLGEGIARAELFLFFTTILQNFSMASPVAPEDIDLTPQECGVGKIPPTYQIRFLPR
UniProt P60484: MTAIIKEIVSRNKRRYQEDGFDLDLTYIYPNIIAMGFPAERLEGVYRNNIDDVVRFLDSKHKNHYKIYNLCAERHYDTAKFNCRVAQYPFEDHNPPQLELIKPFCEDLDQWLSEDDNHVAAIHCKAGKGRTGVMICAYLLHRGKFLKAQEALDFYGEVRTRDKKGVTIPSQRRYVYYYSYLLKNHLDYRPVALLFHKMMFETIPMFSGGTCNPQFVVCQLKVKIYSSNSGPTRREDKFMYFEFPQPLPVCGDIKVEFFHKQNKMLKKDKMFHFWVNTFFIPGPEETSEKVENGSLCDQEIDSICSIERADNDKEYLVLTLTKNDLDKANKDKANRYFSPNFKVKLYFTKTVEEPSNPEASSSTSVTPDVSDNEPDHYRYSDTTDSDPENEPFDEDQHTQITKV
UniProt P06401: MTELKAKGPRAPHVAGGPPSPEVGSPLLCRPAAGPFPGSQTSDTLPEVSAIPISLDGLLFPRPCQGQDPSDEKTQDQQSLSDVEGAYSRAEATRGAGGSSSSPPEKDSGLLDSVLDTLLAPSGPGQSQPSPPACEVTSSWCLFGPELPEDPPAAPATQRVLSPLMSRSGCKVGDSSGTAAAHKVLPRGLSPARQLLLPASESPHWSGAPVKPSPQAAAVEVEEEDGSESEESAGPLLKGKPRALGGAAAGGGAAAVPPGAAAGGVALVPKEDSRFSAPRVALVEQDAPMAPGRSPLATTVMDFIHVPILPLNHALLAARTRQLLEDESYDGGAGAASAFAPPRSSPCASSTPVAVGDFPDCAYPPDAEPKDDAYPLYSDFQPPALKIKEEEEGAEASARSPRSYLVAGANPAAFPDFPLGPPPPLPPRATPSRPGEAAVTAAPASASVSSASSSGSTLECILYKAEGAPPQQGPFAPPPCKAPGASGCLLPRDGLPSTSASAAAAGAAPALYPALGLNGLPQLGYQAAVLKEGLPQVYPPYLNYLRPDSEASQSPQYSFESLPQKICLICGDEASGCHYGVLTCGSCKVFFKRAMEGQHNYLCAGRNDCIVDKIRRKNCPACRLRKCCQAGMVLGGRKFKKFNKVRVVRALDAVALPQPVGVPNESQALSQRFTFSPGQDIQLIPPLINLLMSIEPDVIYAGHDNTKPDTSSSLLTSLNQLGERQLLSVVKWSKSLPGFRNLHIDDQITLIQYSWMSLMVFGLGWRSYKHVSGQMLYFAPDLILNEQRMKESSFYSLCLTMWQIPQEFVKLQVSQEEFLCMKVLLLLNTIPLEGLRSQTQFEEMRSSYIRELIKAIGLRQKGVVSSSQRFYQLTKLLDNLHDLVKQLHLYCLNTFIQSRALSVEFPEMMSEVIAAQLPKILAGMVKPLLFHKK
UniProt Q92731, whole entry, looked up: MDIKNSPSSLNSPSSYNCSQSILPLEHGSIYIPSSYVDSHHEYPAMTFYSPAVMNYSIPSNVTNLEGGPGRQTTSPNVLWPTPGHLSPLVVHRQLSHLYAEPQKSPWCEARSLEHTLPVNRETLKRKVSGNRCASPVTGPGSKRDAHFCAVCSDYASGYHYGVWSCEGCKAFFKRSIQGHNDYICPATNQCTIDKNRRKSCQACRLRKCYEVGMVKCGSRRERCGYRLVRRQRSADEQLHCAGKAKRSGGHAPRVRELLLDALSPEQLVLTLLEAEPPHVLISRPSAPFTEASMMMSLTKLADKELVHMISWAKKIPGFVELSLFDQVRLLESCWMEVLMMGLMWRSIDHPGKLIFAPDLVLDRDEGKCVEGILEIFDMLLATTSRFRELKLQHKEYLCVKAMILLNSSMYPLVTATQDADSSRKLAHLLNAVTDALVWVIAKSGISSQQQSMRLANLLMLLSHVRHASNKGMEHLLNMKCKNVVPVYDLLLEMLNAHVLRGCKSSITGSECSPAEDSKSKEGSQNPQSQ

Experiments:
[1] = Tanguay_ZF_120hpf_AXIS_legacy: (Legacy) Oregon State University Tanguay Lab 120 Hour Post-fertilization zebrafish Assay for Body Axis Malformation (AID 2283635);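 for AC50: potency for an increased fraction of larvae scored with body axis malformation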
Outline: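 Binary scoring of axis defects at 120 hpf under brightfield, fitted positive versus DMSO. Tropical 5D embryos, chorion removed by pronase at 4 hpf, were singly exposed in sealed, dark plates at 28C from 6 hpf; DMSO 0.64% final.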

[2] = read-out: Broad substrate specificity ATP-binding cassette transporter ABCG2 (Homo sapiens) (UniProt Q9UNQ0); test: CLD_ABCG2_6hr: CellzDirect (CLD) Gene Expression Assay for ABC Transporter (ABCG2) at 6 hours (AID 2283660)
Outline: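 Primary human hepatocytes dosed daily with chemicals at multiple concentrations (0.2% DMSO vehicle), harvested 6 h after dosing. ABCG2 mRNA induction read by quantitative nuclease protection assay (qNPA) chemiluminescence; gain of signal fitted against DMSO baseline.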

[3] = read-out: sulfotransferase (SULT2A), SULT2A1 (gene 6822); test: CLD_SULT2A_6hr: CellzDirect (CLD) Gene Expression Assay for sulfotransferase (SULT2A) at 6 hours (AID 2283669);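 note: hits raise transcript level above the DMSO vehicle baseline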
Outline: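 Primary human hepatocytes from two donor preparations were dosed daily with chemicals or 0.2% DMSO and harvested at 6 h. Transcript induction read by qNPA chemiluminescence, fitted for gain of signal relative to DMSO; morphology-based cytotoxicity annotated.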

[4] = read-out: Cytochrome P450 2C19 (Homo sapiens) (UniProt P33261); test: CLD_CYP2C19_24hr: CellzDirect (CLD) Gene Expression Assay for xenobiotic metabolism (CYP2C19) at 24 hours (AID 2283687);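 for outcome: activity means mRNA induction above DMSO vehicle baseline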
Outline: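 Primary human hepatocytes (two donor preparations) dosed daily with fresh test chemical in 0.2% DMSO vehicle; CYP2C19 mRNA induction measured at 24 h by quantitative nuclease protection assay with chemiluminescence, fitted for gain of signal versus DMSO.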

[5] = read-out: Cytochrome P450 2B6 (Homo sapiens) (UniProt P20813); test: CLD_CYP2B6_48hr: CellzDirect (CLD) Gene Expression Assay for xenobiotic metabolism (CYP2B6) at 48 hours (AID 2283699);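 note: actives raise transcript level above DMSO so potency reflects induction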
Outline: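 Primary human hepatocytes dosed daily for two days over multiple concentrations, 0.2% DMSO vehicle; CYP2B6 mRNA quantified at 48 h by qNPA chemiluminescence. Induction fitted as gain of signal versus DMSO; cytotoxicity annotated by morphology.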

[6] = CLD_ACTIN_48hr: CellzDirect (CLD) Gene Expression Assay for Baseline Control (Actin) at 48 hours (AID 2283702)
Outline: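 Primary human hepatocytes (two donor preparations) dosed daily for two days with ToxCast chemicals at multiple concentrations versus 0.2% DMSO vehicle; harvested at 48 h. Actin mRNA measured as a background control by quantitative nuclease protection assay with chemiluminescence.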

[7] = read-out: alkyl and aryl transferase (GSTA2), GSTA2 (gene 2939); test: CLD_GSTA2_48hr: CellzDirect (CLD) Gene Expression Assay for alkyl and aryl transferase (GSTA2) at 48 hours (AID 2283708);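 note: active means mRNA induction above DMSO vehicle baseline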
Outline: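 Primary human hepatocytes dosed daily for two days (0.2% DMSO vehicle), harvested at 48 h. GSTA2 mRNA induction measured by quantitative nuclease protection assay with chemiluminescent imaging, fitted for gain of signal relative to DMSO.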

[8] = STM_H9_OrnCyssISnorm_ratio: Stemina devTOX quickPredict H9 human embryonic stem cell (hESC)-based Assay for Ornithine (ORN):Cystine (CYSS) Ratio (AID 2283714)
Outline: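 Undifferentiated H9 hESCs exposed 72 h, media and compound replaced every 24 h; final 24-h conditioned media deproteinized and analysed by UPLC-HRMS against C13 spike-ins. Value is the internal-standard-normalized ORN/CYSS ratio versus 0.1% DMSO.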

[9] = biological target: human Phosphatase and Tensin Homolog (PTEN), PTEN (gene 5728) (UniProt P60484); test: NVS_ENZ_hPTEN: NovaScreen (NVS) Enzymatic Assay for human Phosphatase and Tensin Homolog (PTEN) (AID 2283203)
Outline: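 Cell-free recombinant human PTEN with fluorescent substrate; product separated by electrophoretic mobility shift and read by fluorescence 1 h after dosing. Primary screen in duplicate at 25 uM, actives followed in concentration series versus DMSO.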

[10] = Tanguay_ZF_120hpf_CFIN_legacy: (Legacy) Oregon State University Tanguay Lab 120 Hour Post-fertilization zebrafish Assay for Caudal Fin Malformation (AID 2283649)
Outline: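 Binary brightfield scoring of caudal fin defects at 120 hpf after static, light-shielded exposure at 28C from 6 hpf. Tropical 5D embryos, chorion removed with pronase at 4 hpf, final DMSO 0.64%.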

PGR (gene 5241) = PGR (gene 5241) (UniProt P06401); test: NVS_NR_hPR: NovaScreen (NVS) Nuclear Receptor Binding Assay for human Progestron Receptor (PR) (AID 2283360);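 note: active means loss of bound radioligand signal versus DMSO baseline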
Outline: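 Competitive displacement of a labelled radioligand from T47D-derived receptor protein is measured in a cell-free format. Initial testing uses 25 uM in duplicate, with positive and negative controls on every plate.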

[11] = Tanguay_ZF_120hpf_SNOU_legacy: (Legacy) Oregon State University Tanguay Lab 120 Hour Post-fertilization zebrafish Assay for Snout Malformation (AID 2283637)
Outline: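 Dechorionated tropical 5D wild-type zebrafish embryos exposed statically from 6 to 120 hpf at 28C, one per well, in 0.64% DMSO. Snout malformation scored as present/absent by brightfield at 120 hpf; dead embryos not scored.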

[12] = read-out: ABC Transporter (ABCB1), ABCB1 (gene 5243); test: CLD_ABCB1_6hr: CellzDirect (CLD) Gene Expression Assay for ABC Transporter (ABCB1) at 6 hours (AID 2283659);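 for outcome: hits raise ABCB1 transcript above the DMSO vehicle baseline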
Outline: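 Primary human hepatocytes (two donor preparations) dosed daily for two days with chemicals at multiple concentrations, 0.2% DMSO vehicle; harvested 6 h post-dose. ABCB1 mRNA induction quantified by qNPA chemiluminescence; gain-of-signal fitted versus DMSO.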

[13] = Tanguay_ZF_120hpf_BRAI_legacy: (Legacy) Oregon State University Tanguay Lab 120 Hour Post-fertilization zebrafish Assay for Brain Malformation (AID 2283641)
Outline: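 Binary brightfield scoring of brain malformation at 120 hpf in Tropical 5D larvae held under static exposure at 28C (0.64% v/v DMSO), non-mortality endpoints skipped if dead. Positive control: 5uM trimethyltin chloride; fit versus DMSO.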

[14] = biological target: Estrogen receptor beta (Homo sapiens) (UniProt Q92731); test: OT_ER_ERbERb_0480: Odyssey Thera (OT) 8-hour HEK293T Protein-Complementation Assay for Estrogen Receptor-beta/-beta Homodimer (AID 2283357);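 note: active means signal gain over DMSO baseline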
Outline: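 Fluorescence intensity, nuclear for agonists and nuclear plus cytoplasmic for antagonists, was quantified by laser scanning cytometry versus vehicle after 8 h treatment. The cells were HEK293T stably carrying ER beta LBD fragment-complementation partners.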

[15] = CCTE_Shafer_MEA_acute_AB: CCTE's Alamar Blue Assay for Cytotoxicity in the Neural Acute Assay, Shafer Lab (AID 2284069);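 note: active compounds lower the viability signal compared with DMSO wells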
Outline: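 Cytotoxicity endpoint for acute MEA exposures of primary rat cortical neurons on day 13 or 15. Resazurin reduction is read fluorescently at 544/590 nm, with DMSO as the negative-control baseline.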

[16] = read-out: xenobiotic metabolism (CYP1A1), CYP1A1 (gene 1543); test: CLD_CYP1A1_24hr: CellzDirect (CLD) Gene Expression Assay for xenobiotic metabolism (CYP1A1) at 24 hours (AID 2283673);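 note: CYP1A1 mRNA level by quantitative nuclease protection with chemiluminescence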
Outline: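 Primary human hepatocytes dosed daily with fresh solutions in 0.2% DMSO vehicle. mRNA measured at 24 h by quantitative nuclease protection assay with chemiluminescence; gain-of-signal fit versus DMSO, with morphology-based cytotoxicity flags.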

[17] = read-out: sulfotransferase (SULT2A), SULT2A1 (gene 6822); test: CLD_SULT2A_48hr: CellzDirect (CLD) Gene Expression Assay for sulfotransferase (SULT2A) at 48 hours (AID 2283710);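 note: hits raise SULT2A1 transcript above the 0.2% DMSO vehicle baseline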
Outline: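 Primary human hepatocytes (two donor preparations) dosed daily for two days with chemicals at multiple concentrations, vehicle 0.2% DMSO; SULT2A1 mRNA induction at 48 h by quantitative nuclease protection assay, chemiluminescent read-out, fitted for gain of signal versus DMSO.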

[18] = CCTE_Mundy_HCI_hNP1_Pro_ResponderAvgInten: CCTE's Proliferation Assay in human neuroprogenitor cells, Mundy Lab (AID 2284224);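 note: human neural progenitor cells hNP1 derived from WA09 embryonic stem cells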
Outline: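 Proliferation read as average intensity of BrdU-positive cells, imaged at 26.25 h post-dosing: chemical exposure started after 40–44 h culture, BrdU during final 4 h, paraformaldehyde fixation. Positive-direction fit relative to DMSO.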

[19] = CCTE_Mundy_HCI_Cortical_NOG_NeuronCount: CCTE's Neurite Outgrowth Assay in rat cortical cells for Neuron Count, Mundy Lab (AID 2284236);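 note: neurons counted by imaging betaIII-tubulin and Hoechst stained cortical cells; cells exposed to compound for about 48 hours before fixation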
Outline: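 Read-out: neuron number by high-content imaging of betaIII-tubulin (Alexa Fluor-488) and Hoechst-labelled rat primary cortical cells.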

CCNc1nc(Cl)nc(NC(C)(C)C#N)n1
AC50 [1]: inconclusive: 18.2 µM
AC50 [2]: inconclusive: 20 µM
AC50 [3]: inconclusive: 20 µM
outcome [4]: inactive
AC50 [5]: active: 3.45 µM
AC50 [6]: inconclusive: 3.22 µM
AC50 [7]: inconclusive: 20 µM
AC50 [8]: inconclusive: 0.0594 µM

CC(O)C#N (configuration not stated)
AC50 [9]: inconclusive: 0.249 µM

Oc1c(Cl)cc(Cl)cc1Cl
outcome [10]: inactive

CC(C)(C)OOC(=O)c1ccccc1
AC50 (PGR (gene 5241)): inconclusive: 25 µM
AC50 [11]: inconclusive: 109 µM

Nc1cnn(-c2ccccc2)c(=O)c1Cl
AC50 [12]: inconclusive: 4.54 µM
outcome [2]: inactive
AC50 [4]: inconclusive: 3.97 µM
AC50 [5]: inconclusive: 38.3 µM
AC50 [6]: inconclusive: 36.4 µM

Nc1ccc(Cc2ccc(N)cc2)cc1
AC50 [13]: inconclusive: 36.1 µM
outcome [10]: inactive

ClC(Cl)(Cl)c1ccccc1
outcome [1]: inactive
AC50 [11]: inconclusive: 202 µM
AC50 [13]: inconclusive: 202 µM

CS(=O)(=O)NC(=O)c1cc(Oc2ccc(C(F)(F)F)cc2Cl)ccc1[N+](=O)[O-]
AC50 [14]: inconclusive: 50 µM

COC(=O)c1ccccc1N
outcome [14]: inactive

CC(C)[C@H](C(=O)O[C@H](C#N)c1cccc(Oc2ccccc2)c1)c1ccc(Cl)cc1
AC50 [11]: active: 2.25 µM
outcome [12]: inactive
outcome [2]: inactive
outcome [4]: inactive
AC50 [6]: inconclusive: 20 µM
outcome [7]: inactive
AC50 [15]: inconclusive: 20 µM

CCCN(CC)CC1COC2(CCC(C(C)(C)C)CC2)O1 (configuration not stated)
AC50 [16]: active: 0.376 µM
outcome [4]: inactive
outcome [5]: inactive
AC50 [17]: active: 0.0474 µM
AC50 [15]: inconclusive: 20 µM

COP(=O)(OC)C(O)C(Cl)(Cl)Cl (configuration not stated)
AC50 [12]: inconclusive: 20 µM
AC50 [3]: inconclusive: 20 µM
AC50 [17]: inconclusive: 0.000714 µM
outcome [15]: inactive
AC50 [18]: active: 50 µM
AC50 [19]: inconclusive: 0.00198 µM

CC(C)(C)c1ccccc1O
AC50 [14]: active: 50 µM

c1ccc2c(c1)oc1ccccc12
AC50 (PGR (gene 5241)): inconclusive: 0.37 µM
AC50 [13]: inconclusive: 202 µM

CN(C)C(=O)Nc1cccc(C(F)(F)F)c1
AC50 [3]: inconclusive: 0.00936 µM
AC50 [7]: inconclusive: 0.105 µM

CN(C)[C@@H]1C(=O)C(C(N)=O)=C(O)[C@@]2(O)C(=O)C3=C(O)c4c(O)cccc4[C@@](C)(O)[C@H]3C[C@@H]12
AC50 [14]: inconclusive: 50 µM
AC50 (PGR (gene 5241)): inconclusive: 0.763 µM
outcome [1]: inactive
AC50 [18]: inconclusive: 0.0139 µM

CC(Oc1cccc(Cl)c1)C(=O)O (configuration not stated)
AC50 [3]: inconclusive: 20 µM
outcome [16]: inactive
AC50 [4]: inconclusive: 0.000351 µM
AC50 [5]: inconclusive: 0.0102 µM
AC50 [7]: inconclusive: 20 µM
AC50 [17]: inconclusive: 3.97 µM

CCCN(CCC)c1c([N+](=O)[O-])cc(C(C)C)cc1[N+](=O)[O-]
AC50 [1]: inconclusive: 202 µM

CC[N+](=O)[O-]
outcome [14]: inactive

CCCCCCOC(=O)c1ccccc1C(=O)OCCCCCC
AC50 [1]: inconclusive: 26.1 µM
AC50 [10]: inconclusive: 45.2 µM

CNC(=O)Oc1cc(C)c(SC)c(C)c1
AC50 [9]: inconclusive: 0.0626 µM
